Assay results reported in paper PMC10457189.
Results are given in words; binding and its absence hold for the method and conditions named. In cells and extracts the contact can be indirect. Some results given as binding are weak or reduced against the parent protein; the word gives no strength. For part of these data: Sequences can lack the tags named with a protein.

Sequences of proteins named here, by UniProt entry; tags and fusion partners are left off.
UniProt Q14974: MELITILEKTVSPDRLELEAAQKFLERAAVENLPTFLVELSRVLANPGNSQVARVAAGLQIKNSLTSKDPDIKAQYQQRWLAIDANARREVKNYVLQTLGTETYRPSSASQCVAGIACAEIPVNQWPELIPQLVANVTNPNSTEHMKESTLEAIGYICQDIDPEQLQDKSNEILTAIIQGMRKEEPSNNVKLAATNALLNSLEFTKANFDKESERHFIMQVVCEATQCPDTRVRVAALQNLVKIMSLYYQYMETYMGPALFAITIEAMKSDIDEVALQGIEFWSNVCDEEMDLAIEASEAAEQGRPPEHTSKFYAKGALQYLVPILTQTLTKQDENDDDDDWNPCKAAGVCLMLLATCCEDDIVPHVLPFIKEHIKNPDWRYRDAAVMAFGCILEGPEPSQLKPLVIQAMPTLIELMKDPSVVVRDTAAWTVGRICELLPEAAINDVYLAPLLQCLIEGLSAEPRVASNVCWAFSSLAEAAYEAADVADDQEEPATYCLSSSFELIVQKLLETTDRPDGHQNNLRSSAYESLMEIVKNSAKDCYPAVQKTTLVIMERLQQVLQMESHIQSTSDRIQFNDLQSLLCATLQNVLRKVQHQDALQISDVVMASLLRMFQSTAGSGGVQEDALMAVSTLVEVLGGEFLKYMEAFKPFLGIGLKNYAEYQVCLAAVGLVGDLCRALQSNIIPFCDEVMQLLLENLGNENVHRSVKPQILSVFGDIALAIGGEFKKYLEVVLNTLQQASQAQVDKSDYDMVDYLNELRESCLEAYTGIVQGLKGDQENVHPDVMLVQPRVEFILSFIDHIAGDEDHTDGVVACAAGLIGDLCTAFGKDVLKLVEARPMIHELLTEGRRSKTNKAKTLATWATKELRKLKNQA

T1: GST-tagged SIPA1 NLR hinge (GST-NLR), SIPA1(140-179 aa) (human) (UniProt Q96FS4)
T1 sequence: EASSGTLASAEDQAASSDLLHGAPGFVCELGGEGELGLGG

T2: Signal-induced proliferation-associated 1 (SIPA1) (human (endogenous in BT549)) (UniProt Q96FS4)
T2 sequence: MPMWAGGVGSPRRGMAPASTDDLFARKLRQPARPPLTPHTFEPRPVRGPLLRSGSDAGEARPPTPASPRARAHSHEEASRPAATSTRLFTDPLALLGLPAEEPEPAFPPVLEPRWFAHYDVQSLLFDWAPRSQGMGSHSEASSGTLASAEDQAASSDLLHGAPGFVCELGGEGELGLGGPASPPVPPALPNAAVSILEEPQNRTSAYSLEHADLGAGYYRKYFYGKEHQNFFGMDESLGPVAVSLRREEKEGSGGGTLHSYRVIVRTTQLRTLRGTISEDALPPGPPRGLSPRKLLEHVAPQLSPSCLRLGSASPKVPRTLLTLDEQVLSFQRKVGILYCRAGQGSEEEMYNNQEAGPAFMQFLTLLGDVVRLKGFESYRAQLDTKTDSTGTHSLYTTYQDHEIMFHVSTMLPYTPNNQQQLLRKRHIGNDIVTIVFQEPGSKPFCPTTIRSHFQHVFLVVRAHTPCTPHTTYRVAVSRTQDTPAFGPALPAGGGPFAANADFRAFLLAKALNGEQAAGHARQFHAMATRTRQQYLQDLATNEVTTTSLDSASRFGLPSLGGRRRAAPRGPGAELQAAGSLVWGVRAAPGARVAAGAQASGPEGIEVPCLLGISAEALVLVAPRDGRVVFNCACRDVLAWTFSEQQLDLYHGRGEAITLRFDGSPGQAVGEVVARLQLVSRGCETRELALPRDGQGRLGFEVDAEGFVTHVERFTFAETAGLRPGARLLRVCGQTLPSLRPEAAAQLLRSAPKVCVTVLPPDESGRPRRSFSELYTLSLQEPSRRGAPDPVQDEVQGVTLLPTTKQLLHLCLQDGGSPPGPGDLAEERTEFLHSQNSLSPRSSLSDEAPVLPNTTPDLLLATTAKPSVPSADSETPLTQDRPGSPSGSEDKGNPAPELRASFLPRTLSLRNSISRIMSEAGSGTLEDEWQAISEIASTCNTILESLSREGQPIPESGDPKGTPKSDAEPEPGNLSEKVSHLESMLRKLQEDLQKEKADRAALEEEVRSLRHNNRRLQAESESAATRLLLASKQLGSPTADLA

B1: Signal-induced proliferation-associated 1 (SIPA1) (protein, UniProt Q96FS4 1-1042)
chain: T2 sequence

Tests used:
[1] = molecular target: T1, GST-tagged SIPA1 NLR hinge (GST-NLR), SIPA1(140-179 aa) (human); assay: pull-down; purified GST or GST-NLR incubated with whole-cell lysates; Western blot with anti-importin β1 mAb (the text calls it Co-IP); only the target purified
[2] = molecular target: T2, Signal-induced proliferation-associated 1 (SIPA1) (human (endogenous in BT549)); assay: co-IP; BT549 cells cultured with fibronectin for 24 h; whole-cell lysates in TNE lysis buffer; IP with anti-SIPA1 or anti-importin β1 antibody and protein G beads; Western blot
[3] = molecular target: importin β1 (human (endogenous in BT549)) (UniProt Q14974); assay: as above

binding [1] | binding [2] | binding [3] | Molecule
binds | binds |  | importin β1 (from UniProt Q14974 1-876)
 |  | binds | B1
